Results are given in words; binding and its absence hold for the method and conditions named. Some results given as binding are weak or reduced against the parent protein; the word gives no strength.
Target: cynomolgus monkey PD1 human Fc tagged recombinant protein (cynomolgus monkey)
Assay: direct ELISA, Fab on coated PD1-Fc

B1: Fab-Mab005 (Fab, V domains shown)
VH: EVQLVESGGGLVQPGGSLRLSCAASGFTFSSYMMSWVRQAPGKGLEWVATISGGGANTYYPDSVKGRFTISRDNAKNSLYLQMNSLRAEDTAVYYCARQLYYFDYWGQGTTVTVSS
VL: DIQMTQSPSSLSASVGDRVTITCLASQTIGTWLTWYQQKPGKAPKLLIYTATSLADGVPSRFSGSGSGTDFTLTISSLQPEDFATYYCQQVYSIPWTFGGGTKVEIK
- binding: binds

Source: patent US20240124590A1
